# Some of the results follow. These are further read-outs of the screen, such as a control signal, another cell line or another target. No call is given for them. The list favours compounds with an active or inconclusive main result. Words in brackets tell the shape of the fitted curve; partial curves, single points and poor fits give uncertain potencies.
# Assay: qHTS Assay for Lipid Storage Modulators in Drosophila S3 Cells;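 as to cell number change: cells counted by Cell Tracker Red CMTPX staining in the red channel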
# Conditions: BODIPY lipid droplet fluorescence, 18-24 h; for cell number change: measured here: cell count max response, cells fed with added oleic acid
# Summary of the method: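 Drosophila S3 cells got compounds at several concentrations plus oleic acid (400 uM solution). Laser-scanning cytometry with 488 nm excitation read lipid droplets at 500-530 nm and cells at 575-640 nm. Percent activity was relative to 20 uM Triacsin C.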
# [1] = measured here: cell number channel AC50, cells fed with added oleic acid
# [2] = measured here: lipid fluorescence (Fed channel) AC50, cells fed with added oleic acid
Compound,AC50 [1],cell number change,AC50 [2]
CC(=Nc1ccccc1C)C1=C(O)CSC1=O,"0.092 µM [falling, full curve, poor fit]",,
O=C(O)c1cc(-c2ccc(O)cc2)nc2ccccc12,"14.6 µM [falling, partial curve, poor fit]",-86%,"6.51 µM [falling, single point]"
CCN(CC(=O)NCc1cccs1)C(=O)c1cc(S(=O)(=O)NCc2ccccc2)ccc1C,,-43.4%,
CCOc1cc2nc(-c3ccc(OC)c(OC)c3)nc(NCCCN3CCOCC3)c2cc1OC,"0.731 µM [rising, single point]",,"0.92 µM [rising, full curve]"
CCOC(=O)CCC(NC(=O)CCCC(=O)NC(CCC(=O)OCC)C(=O)OCC)C(=O)OCC (stereo not drawn),,-2.55%,"9.2 µM [falling, partial curve, poor fit]"
CCc1ccccc1NC(=O)CN1CCN(C(=O)CNC(=O)c2ccc(N3CCCC3=O)cc2)CC1,"2.59 µM [falling, partial curve]",12.9%,"2.06 µM [falling, partial curve, poor fit]"
O=C(CN1CCN(c2ccccc2)CC1)Nc1ccc2c(c1)OCCO2,"29.1 µM [rising, single point]",49.3%,"29.1 µM [rising, single point]"
O=C(Nc1ccccc1-c1nnn(CC(=O)N2CCc3ccccc3C2)n1)C1CCC1,,-5.99%,"18.4 µM [falling, single point]"
O=C(NCC1CC1)Nc1cccc(Cl)c1,,15.3%,
Cc1cccn2c(=O)c(C=Nc3ccccc3)c(NCCO)nc12,,-5.66%,"18.4 µM [rising, single point]"
Cc1ccc(OC(=O)c2c(C)nn(-c3ccccc3)c2C)cc1,"32.6 µM [falling, single point]",-36.3%,"0.164 µM [falling, full curve, poor fit]"
O=C(Nc1ccc2c(c1)OCCO2)C1CC1c1ccccc1 (stereo not drawn),"13 µM [rising, partial curve]",74.8%,"18.4 µM [rising, partial curve]"
CCC1Oc2ccc(C)cc2N(CC(=O)NC2CCCCC2)C1=O (stereo not drawn),,8.82%,"0.231 µM [rising, full curve, poor fit]"
O=C(C1=C(c2ccccc2)C(=O)c2ccccc2C1=O)c1ccccc1,"32.6 µM [falling, single point]",-30.7%,"32.6 µM [falling, single point]"
Cc1ccc(C)c(N(CC(=O)NCCc2ccccc2)C(=O)CCC(=O)Nc2ccccn2)c1,,-15.7%,"6.51 µM [falling, single point]"
COc1ccccc1C/C(N)=N/OC(=O)/C=C/c1ccccc1,"4.61 µM [rising, full curve, poor fit]",42.3%,"3.26 µM [rising, full curve]"
O=C(CN(c1ccc(F)cc1)S(=O)(=O)c1ccccc1)NC1CCCCCC1,,-5.87%,"7.31 µM [falling, single point]"
CCOc1ccc2c(c1)C(=O)C(=O)N2CC1COc2ccccc2O1 (stereo not drawn),"3.26 µM [rising, single point]",-10.6%,"6.51 µM [rising, partial curve, poor fit]"

Compound,AC50 [1],cell number change,AC50 [2]
CCOC(=O)c1cc(CC)sc1NC(=O)COC(=O)c1cnccn1,,-17.6%,"0.651 µM [falling, partial curve, poor fit]"
COc1nc2ccccc2nc1N1CCN(Cc2ccc3c(c2)OCO3)CC1,"11.6 µM [rising, partial curve, poor fit]",50%,
Cc1cc(N2CCN(C/C=C/c3ccccc3)CC2)n2ncnc2n1,"0.82 µM [falling, full curve, poor fit]",-30.6%,"10.3 µM [falling, partial curve]"
COc1ccc(CCn2c(C)c(C(C)=O)c3cc(OC(=O)c4ccco4)ccc32)cc1OC,,19.2%,"3.26 µM [rising, partial curve]"
COC(=O)CNC(=O)c1cccs1,"0.00461 µM [falling, full curve, poor fit]",-25.4%,"0.0092 µM [falling, full curve, poor fit]"
CN(CC(=O)Nc1ccc(F)cc1)C(=O)CSc1nccn1C,,2.01%,
Cc1cccc(OCC(=O)Nc2ccccc2-c2ccccc2)c1,,5.8%,
O=C(CCNC(=O)c1ccc(Br)cc1)Nc1nccs1,"0.13 µM [rising, full curve, poor fit]",,"0.116 µM [rising, full curve, poor fit]"
NC(=O)c1ccc(NCC2CCCO2)c([N+](=O)[O-])c1 (stereo not drawn),,,"35.5 µM [rising, single point]"
CC(C)C[C@@H](CN(N=O)[C@@H](Cc1ccccc1)CN(C)N=O)N(CCc1ccccc1)N=O,,13.2%,"0.0651 µM [rising, full curve, poor fit]"
NS(=O)(=O)c1ccc(CNS(=O)(=O)c2cc(C(=O)O)ccc2Cl)cc1,,-5.54%,"18.4 µM [falling, single point]"
N#Cc1ccc(C(=O)OCCc2cc3ccccc3c(=O)o2)cc1,,-15.6%,"9.2 µM [falling, single point]"
Cc1ccc(C)c(S(=O)(=O)NCc2ccc(C(=O)N3CCN(c4ccccc4)CC3)cc2)c1,"20.6 µM [falling, single point]",-31.4%,"7.31 µM [falling, partial curve]"
COc1ccc(-n2c(Cc3cccn3C)nnc2SCC(=O)Nc2cc(C)cc(C)c2)cc1,,6.97%,
O=C(Cc1ccccc1)Nc1nnc(-c2ccccc2)o1,,23.4%,
CN(C)c1ccc(P(=O)(COc2ccc([N+](=O)[O-])cc2)c2ccc(N(C)C)cc2)cc1,,5.53%,"0.103 µM [rising, full curve, poor fit]"
N#Cc1ccccc1Cn1c(=O)n(Cc2ccc(C(=O)NCc3ccco3)cc2)c(=O)c2ccccc21,,-28%,"23.1 µM [falling, single point]"

# Two of the compounds above, with tabs:
Compound	AC50 [1]	cell number change	AC50 [2]
Cc1cc(N2CCN(C/C=C/c3ccccc3)CC2)n2ncnc2n1	0.82 µM [falling, full curve, poor fit]	-30.6%	10.3 µM [falling, partial curve]
NC(=O)c1ccc(NCC2CCCO2)c([N+](=O)[O-])c1 (stereo not drawn)			35.5 µM [rising, single point]

# Reference: PubChem BioAssay AID2685 (National Center for Advancing Translational Sciences (NCATS), 2010)
